Results as given in the supplement of paper PMC12819154, “High-throughput peptide-centric local stability assay extends protein–ligand identification to membrane proteins, tissues and bacteria” (Nature Structural & Molecular Biology, 2025).
The list shows a part of the results. Most values lie at the level of the controls, where differences are scatter.

Sequences of proteins named here, by UniProt entry; tags and fusion partners are left off. A change or cut given only in a name is not applied to a line headed by its entry.
UniProt P28331, whole entry: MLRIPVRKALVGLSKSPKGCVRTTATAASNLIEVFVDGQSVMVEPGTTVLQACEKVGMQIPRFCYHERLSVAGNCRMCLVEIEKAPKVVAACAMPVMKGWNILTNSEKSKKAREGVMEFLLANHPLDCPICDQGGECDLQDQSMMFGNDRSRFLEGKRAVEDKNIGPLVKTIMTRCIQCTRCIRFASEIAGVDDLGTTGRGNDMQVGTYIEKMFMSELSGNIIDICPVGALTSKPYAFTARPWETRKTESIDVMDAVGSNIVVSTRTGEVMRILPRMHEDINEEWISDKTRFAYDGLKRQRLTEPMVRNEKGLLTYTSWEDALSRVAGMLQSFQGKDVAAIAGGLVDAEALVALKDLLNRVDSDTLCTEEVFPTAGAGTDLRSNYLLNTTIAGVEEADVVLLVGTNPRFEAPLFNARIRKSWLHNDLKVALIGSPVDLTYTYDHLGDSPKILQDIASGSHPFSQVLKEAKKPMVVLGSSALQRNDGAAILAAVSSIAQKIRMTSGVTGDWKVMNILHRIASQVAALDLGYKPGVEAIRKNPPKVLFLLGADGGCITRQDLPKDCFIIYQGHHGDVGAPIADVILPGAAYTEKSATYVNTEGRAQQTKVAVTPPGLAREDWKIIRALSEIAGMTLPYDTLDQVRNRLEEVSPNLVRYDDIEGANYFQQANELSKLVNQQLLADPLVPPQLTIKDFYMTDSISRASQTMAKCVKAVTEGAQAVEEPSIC
UniProt P43358: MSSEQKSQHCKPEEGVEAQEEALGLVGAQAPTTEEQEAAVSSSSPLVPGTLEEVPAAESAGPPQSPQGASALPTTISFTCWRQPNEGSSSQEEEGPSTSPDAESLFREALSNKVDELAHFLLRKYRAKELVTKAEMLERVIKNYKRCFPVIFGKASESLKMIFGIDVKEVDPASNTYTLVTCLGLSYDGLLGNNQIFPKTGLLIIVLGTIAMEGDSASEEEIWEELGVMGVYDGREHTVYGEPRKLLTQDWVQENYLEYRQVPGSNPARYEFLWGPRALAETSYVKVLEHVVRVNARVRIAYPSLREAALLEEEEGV
UniProt P35226: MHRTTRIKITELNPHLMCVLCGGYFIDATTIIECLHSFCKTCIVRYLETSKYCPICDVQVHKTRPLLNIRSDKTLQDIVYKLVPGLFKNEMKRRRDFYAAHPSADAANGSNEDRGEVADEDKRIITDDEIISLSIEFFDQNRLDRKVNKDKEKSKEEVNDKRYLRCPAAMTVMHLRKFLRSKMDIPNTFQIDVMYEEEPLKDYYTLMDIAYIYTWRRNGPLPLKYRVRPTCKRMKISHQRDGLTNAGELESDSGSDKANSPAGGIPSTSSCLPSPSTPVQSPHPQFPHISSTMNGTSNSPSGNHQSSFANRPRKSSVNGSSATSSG
UniProt P41161: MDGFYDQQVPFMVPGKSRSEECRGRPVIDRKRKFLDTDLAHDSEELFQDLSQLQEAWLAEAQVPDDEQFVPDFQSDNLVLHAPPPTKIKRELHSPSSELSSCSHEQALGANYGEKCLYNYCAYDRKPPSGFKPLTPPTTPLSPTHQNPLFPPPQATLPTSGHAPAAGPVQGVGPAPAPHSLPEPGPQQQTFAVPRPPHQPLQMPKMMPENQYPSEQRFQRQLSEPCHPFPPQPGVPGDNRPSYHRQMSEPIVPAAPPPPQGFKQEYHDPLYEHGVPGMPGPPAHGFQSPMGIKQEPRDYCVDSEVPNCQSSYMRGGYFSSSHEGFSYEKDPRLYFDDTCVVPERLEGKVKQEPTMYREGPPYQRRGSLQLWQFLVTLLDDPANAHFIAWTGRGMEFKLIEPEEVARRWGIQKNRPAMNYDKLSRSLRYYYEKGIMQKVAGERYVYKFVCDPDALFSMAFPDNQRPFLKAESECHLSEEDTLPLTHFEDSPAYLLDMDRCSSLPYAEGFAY
UniProt P41208: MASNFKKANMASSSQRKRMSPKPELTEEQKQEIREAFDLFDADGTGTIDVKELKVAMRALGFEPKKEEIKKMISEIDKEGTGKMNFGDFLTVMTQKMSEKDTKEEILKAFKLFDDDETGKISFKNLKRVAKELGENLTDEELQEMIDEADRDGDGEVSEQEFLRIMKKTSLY
UniProt P35998: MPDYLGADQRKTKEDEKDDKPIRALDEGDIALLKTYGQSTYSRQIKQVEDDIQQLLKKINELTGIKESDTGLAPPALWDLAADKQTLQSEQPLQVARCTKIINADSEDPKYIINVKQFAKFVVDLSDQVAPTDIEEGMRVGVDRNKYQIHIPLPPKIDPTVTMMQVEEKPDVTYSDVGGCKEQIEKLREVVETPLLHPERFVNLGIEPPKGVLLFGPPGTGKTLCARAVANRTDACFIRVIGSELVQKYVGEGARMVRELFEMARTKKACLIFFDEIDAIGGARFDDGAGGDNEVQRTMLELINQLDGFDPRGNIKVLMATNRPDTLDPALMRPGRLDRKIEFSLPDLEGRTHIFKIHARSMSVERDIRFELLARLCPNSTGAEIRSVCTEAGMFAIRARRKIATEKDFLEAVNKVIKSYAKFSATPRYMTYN
UniProt P41214: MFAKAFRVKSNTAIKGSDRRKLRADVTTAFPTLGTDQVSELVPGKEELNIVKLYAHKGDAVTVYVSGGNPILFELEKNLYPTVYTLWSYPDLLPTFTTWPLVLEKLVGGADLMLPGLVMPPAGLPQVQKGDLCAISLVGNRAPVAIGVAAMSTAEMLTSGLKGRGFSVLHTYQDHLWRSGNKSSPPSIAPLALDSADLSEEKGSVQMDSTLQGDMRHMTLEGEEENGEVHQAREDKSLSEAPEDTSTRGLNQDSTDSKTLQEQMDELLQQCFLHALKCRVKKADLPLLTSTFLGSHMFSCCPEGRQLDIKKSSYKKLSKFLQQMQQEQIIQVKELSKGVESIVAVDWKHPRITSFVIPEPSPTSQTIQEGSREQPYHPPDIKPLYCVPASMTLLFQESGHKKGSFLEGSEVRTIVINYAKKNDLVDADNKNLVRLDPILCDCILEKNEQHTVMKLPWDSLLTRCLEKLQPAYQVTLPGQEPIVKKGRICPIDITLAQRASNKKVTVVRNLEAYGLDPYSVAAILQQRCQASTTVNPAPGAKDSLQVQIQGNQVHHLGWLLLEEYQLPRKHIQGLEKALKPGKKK
UniProt P32856: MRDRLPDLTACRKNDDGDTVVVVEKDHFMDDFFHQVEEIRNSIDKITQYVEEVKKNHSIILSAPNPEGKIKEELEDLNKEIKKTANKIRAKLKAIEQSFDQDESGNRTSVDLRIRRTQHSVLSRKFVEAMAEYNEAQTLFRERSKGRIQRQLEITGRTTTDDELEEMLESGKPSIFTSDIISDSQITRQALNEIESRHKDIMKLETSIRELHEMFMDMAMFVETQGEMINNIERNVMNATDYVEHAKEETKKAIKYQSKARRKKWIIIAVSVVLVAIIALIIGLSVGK
UniProt P37108: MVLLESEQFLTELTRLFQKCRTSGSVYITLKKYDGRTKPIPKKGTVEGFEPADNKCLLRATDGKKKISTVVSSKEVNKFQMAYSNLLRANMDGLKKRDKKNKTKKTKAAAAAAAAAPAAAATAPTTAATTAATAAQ
UniProt P31948, whole entry, looked up: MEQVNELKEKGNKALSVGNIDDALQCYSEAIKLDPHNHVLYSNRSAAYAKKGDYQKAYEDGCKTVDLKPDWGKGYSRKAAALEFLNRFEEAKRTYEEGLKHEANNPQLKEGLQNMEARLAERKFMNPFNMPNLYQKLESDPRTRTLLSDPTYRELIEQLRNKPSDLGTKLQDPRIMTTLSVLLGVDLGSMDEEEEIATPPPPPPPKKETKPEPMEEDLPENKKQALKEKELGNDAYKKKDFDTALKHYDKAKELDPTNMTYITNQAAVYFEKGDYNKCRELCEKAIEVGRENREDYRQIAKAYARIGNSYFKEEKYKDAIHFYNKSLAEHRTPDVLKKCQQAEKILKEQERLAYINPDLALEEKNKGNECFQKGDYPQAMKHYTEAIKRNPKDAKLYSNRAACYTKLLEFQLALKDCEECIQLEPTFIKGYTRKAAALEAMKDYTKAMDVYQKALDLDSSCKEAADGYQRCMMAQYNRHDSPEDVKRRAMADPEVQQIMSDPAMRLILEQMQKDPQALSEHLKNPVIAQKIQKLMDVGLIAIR
UniProt P29353: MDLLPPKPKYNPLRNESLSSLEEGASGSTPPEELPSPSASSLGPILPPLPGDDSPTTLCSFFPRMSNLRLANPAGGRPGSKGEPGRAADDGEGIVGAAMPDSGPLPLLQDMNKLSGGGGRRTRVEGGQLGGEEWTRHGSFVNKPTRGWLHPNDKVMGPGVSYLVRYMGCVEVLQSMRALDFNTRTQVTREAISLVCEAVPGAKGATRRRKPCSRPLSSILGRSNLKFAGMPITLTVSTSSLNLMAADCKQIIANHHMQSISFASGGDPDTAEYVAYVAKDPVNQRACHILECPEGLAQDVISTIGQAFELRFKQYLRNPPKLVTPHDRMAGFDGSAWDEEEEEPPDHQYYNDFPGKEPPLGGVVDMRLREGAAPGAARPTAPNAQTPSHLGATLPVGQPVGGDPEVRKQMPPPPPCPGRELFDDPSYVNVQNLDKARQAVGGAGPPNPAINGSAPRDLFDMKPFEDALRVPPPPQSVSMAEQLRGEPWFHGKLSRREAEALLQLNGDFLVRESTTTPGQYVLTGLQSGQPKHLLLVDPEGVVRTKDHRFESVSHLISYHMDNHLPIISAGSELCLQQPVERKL
UniProt P42126: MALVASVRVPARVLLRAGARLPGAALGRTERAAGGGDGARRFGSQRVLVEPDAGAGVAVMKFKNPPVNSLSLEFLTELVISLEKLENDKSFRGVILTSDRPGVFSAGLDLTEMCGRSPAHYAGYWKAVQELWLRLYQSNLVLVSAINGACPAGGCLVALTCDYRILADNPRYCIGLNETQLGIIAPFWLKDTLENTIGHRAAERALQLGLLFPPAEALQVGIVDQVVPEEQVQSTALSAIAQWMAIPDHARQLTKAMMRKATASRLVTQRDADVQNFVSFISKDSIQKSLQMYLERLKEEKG
UniProt P35251: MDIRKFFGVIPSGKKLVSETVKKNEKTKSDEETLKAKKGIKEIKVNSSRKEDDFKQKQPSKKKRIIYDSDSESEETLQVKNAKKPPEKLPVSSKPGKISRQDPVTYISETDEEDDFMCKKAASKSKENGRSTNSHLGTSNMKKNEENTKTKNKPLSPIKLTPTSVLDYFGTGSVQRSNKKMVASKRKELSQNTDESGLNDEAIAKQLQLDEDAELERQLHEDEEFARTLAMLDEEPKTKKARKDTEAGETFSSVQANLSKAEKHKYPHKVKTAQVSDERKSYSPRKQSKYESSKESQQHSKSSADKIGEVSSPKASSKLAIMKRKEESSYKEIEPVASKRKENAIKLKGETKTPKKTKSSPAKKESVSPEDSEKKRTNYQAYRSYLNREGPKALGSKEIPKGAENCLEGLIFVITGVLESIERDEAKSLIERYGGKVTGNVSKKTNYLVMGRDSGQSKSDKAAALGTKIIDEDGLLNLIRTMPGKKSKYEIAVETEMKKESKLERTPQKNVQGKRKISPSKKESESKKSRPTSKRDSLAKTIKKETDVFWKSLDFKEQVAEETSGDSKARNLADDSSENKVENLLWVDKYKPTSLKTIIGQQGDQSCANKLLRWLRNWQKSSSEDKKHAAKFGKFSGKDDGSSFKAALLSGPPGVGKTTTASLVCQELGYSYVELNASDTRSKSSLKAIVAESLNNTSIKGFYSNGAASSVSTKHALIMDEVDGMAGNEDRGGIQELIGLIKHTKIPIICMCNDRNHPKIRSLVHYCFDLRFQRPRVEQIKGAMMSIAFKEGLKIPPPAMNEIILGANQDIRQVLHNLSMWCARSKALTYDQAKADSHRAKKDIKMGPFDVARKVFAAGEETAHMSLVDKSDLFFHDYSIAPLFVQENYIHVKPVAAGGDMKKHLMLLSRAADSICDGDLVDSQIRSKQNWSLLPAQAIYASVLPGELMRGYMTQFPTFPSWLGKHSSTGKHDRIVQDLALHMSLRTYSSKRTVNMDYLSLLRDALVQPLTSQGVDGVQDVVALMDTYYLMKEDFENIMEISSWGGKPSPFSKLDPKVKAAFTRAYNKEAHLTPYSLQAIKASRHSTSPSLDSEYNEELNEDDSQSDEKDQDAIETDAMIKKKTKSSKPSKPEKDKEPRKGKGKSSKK
UniProt P38936, whole entry: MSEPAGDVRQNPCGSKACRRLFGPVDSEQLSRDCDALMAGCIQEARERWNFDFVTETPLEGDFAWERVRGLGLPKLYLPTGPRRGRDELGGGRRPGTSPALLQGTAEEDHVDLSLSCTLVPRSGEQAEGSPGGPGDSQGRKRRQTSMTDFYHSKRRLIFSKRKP
UniProt P40855: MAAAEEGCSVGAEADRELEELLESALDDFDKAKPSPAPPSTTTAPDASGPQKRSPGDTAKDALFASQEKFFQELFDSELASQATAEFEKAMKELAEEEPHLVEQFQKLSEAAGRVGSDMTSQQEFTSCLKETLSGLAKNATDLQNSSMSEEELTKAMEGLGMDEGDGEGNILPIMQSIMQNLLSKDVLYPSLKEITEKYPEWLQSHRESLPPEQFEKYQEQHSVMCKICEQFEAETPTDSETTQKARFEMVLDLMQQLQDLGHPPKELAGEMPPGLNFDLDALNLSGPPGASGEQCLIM

Each target was assayed with CN[C@@H]1C[C@H]2O[C@@](C)([C@@H]1OC)n1c3ccccc3c3c4c(c5c6ccccc6n2c5c31)C(=O)NC4 [staurosporine] (assay: log2 fold change of tryptic peptide abundance, ligand vs vehicle (limited proteolysis) (log2 ratio); higher = more trypsin-susceptible (destabilized)). Settings: ligand concentration: 20 uM; sample: K562 cleared lysate; digestion: 4 min, 22 C (HT-PELSA RT4min, Orbitrap Astral).

Row | Target | log2 fold change
1 | NDUFS1 (peptide sequence: LEEVSPNLVR, peptide start residue: 646) (UniProt P28331) | -0.493
2 | MAGEA4 (peptide sequence: YEFLWGPR, peptide start residue: 1067) (UniProt P43358) | 0.0361
3 | DLST (peptide sequence: LGFMSAFVK, peptide start residue: 278) (UniProt P36957) | -0.224
4 | BMI1 (peptide sequence: CPAAMTVMHLR, peptide start residue: 166) (UniProt P35226) | -0.186
5 | ETV5 (peptide sequence: LYFDDTCVVPERLEGK, peptide start residue: 333) (UniProt P41161) | -0.171
6 | CETN2 (peptide sequence: MNFGDFLTVMTQK, peptide start residue: 84) (UniProt P41208) | 0.151
7 | YWHAB (peptide sequence: AVTEQGHELSNEER, peptide start residue: 30) (UniProt P31946) | -0.122
8 | PPM1A (peptide sequence: TGFLEIDEHMR, peptide start residue: 103) (UniProt P35813) | -0.205
9 | PSMC2 (peptide sequence: IATEKDFLEAVNK, peptide start residue: 403) (UniProt P35998) | 0.312
10 | ABL2 (peptide sequence: HTPADVQLIGTDSQGNK, peptide start residue: 941) (UniProt P42684) | -0.28
11 | GBP2 (peptide sequence: DIWDIQMR, peptide start residue: 573) (UniProt P32456) | -0.0492
12 | PPP2R1B (peptide sequence: ELVSDTNQHVK, peptide start residue: 344) (UniProt P30154) | 0.212
13 | UniProt P41214 (peptide sequence: GSFLEGSEVR, peptide start residue: 403) | -0.315
14 | PRDX5 (peptide sequence: KGVLFGVPGAFTPGCSK, peptide start residue: 86) (UniProt P30044) | 0.128
15 | IGHMBP2 (peptide sequence: KLSELSNQR, peptide start residue: 976) (UniProt P38935) | -0.564
16 | STX2 (peptide sequence: NVMNATDYVEHAKEETKK, peptide start residue: 235) (UniProt P32856) | 0.299
17 | HTT (peptide sequence: GIVEQEIQAMVSKR, peptide start residue: 2552) (UniProt P42858) | 0.39
18 | TNFRSF8 (peptide sequence: ADTVIVGTVK, peptide start residue: 522) (UniProt P28908) | -0.275
19 | SRP14 (peptide sequence: EVNKFQMAYSNLLR, peptide start residue: 75) (UniProt P37108) | 0.294
20 | ZEB1 (peptide sequence: VGESSEQVSEEK, peptide start residue: 1109) (UniProt P37275) | -0.643
21 | STIP1 (peptide sequence: FMNPFNMPNLYQKLESDPRTR, peptide start residue: 124) (UniProt P31948) | 0.311
22 | SHC1 (peptide sequence: KQMPPPPPCPGR, peptide start residue: 408) (UniProt P29353) | -0.466
23 | UniProt P42126 (peptide sequence: DTLENTIGHR, peptide start residue: 191) | 0.57
24 | BSG (peptide sequence: GSDQAIITLR, peptide start residue: 308) (UniProt P35613) | 0.258
25 | RFC1 (peptide sequence: SLVHYCFDLR, peptide start residue: 762) (UniProt P35251) | -0.255
26 | UniProt P38936 (peptide sequence: LYLPTGPR, peptide start residue: 76) | 0.359
27 | UniProt P40855 (peptide sequence: DVLYPSLK, peptide start residue: 186) | 0.329
28 | TPP2 (peptide sequence: DLKEEFTEALR, peptide start residue: 1016) (UniProt P29144) | -0.309
29 | UniProt P35626 (peptide sequence: IVLPEPSIR, peptide start residue: 32) | 0.72

Reformatted: results already given.
Row,Target,log2 fold change
9,"PSMC2 (peptide sequence: IATEKDFLEAVNK, peptide start residue: 403) (UniProt P35998)",0.312
18,"TNFRSF8 (peptide sequence: ADTVIVGTVK, peptide start residue: 522) (UniProt P28908)",-0.275
